Assay results from article PMC5192219.

Amino acid sequences for entries named in this document (tags omitted).
UniProt Q9UER7, whole entry: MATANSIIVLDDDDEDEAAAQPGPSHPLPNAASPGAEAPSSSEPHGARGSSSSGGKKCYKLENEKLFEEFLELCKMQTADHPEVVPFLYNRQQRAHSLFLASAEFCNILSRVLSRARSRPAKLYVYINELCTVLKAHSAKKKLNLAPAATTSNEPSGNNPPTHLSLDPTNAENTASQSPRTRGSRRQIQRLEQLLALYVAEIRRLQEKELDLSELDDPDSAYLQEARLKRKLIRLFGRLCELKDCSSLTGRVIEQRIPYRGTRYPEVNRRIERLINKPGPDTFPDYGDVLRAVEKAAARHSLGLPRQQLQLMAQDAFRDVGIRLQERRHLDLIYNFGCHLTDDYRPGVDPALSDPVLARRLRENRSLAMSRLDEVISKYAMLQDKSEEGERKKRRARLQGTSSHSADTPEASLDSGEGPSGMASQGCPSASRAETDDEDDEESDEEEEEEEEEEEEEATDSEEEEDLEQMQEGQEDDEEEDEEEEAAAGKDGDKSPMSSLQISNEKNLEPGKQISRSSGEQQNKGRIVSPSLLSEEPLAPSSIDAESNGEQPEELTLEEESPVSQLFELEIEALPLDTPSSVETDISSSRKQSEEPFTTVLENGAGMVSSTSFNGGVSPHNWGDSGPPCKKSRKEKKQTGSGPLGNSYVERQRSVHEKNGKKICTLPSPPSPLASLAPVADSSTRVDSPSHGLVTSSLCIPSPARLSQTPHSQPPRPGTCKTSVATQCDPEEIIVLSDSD

Columns and labels:
Daxx = Daxx (UniProt Q9UER7); assay: EMSA; details: Daxx alone; 0.05 nM 32P probe, 1 ug Slug, room temperature 30 min; 5x buffer: 2.5 mM EDTA, 50 mM Tris-HCl pH 7.5, 2.5 mM DTT, 5 mM MgCl2, 250 mM NaCl, 20% glycerol; protein translated in vitro; residues 1-740; protein details: HA (N-terminal); label: 32P 5' end (T4 PNK)
Slug = molecular target: T1, Slug (UniProt O43623); assay: EMSA; details: 0.05 nM 32P probe, 1 ug Slug, room temperature 30 min, 5x buffer: 2.5 mM EDTA, 50 mM Tris-HCl pH 7.5, 2.5 mM DTT, 5 mM MgCl2, 250 mM NaCl, 20% glycerol, recombinant protein, residues 1-268, label: 32P 5' end (T4 PNK)
T1 sequence (looked up): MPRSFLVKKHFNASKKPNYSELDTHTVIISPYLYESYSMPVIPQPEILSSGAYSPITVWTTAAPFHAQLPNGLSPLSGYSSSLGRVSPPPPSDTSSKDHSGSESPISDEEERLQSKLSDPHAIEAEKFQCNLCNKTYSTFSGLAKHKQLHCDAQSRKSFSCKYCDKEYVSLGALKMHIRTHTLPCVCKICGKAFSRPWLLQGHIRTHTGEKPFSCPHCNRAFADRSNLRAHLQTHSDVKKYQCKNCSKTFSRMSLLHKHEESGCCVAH

GACTTCCGCAAGCTCACAGGTGCTTTGCAGTTCCGACG (double strand) [E-boxC wild-type]
binding result (Daxx): no binding | binding result (Slug): binds | binding result (Slug; + HA-Daxx (disrupts the Slug-DNA complex)): binds more weakly

The exact form of at least one protein or probe is not confirmed. For part of these data: A negative result means that nothing was seen under these conditions. For part of these data: Weaker means in comparison with the reference protein, sequence or condition of that experiment. For part of these data: Tags and fusion partners may be left off the protein sequences shown.
